{
  "source": "paper PMC6329795",
  "target": "kinetoplast polyadenylation factor 4 (KPAF4) (Trypanosoma brucei)",
  "experiment": "co-IP; tandem affinity purification of KPAF4-TAP from mitochondrial extract (mock and RNase I-treated; parental 29-13 line as control); final fractions immunoblotted, REL1/REL2 detected by self-adenylation with [alpha-32P]ATP",
  "note": "These are yes or no findings as the source states them, for the method shown. In cells and extracts the contact can be indirect. Binding calls can cover weak binding; strength is not graded here.",
  "data": [
    {"binder": "REL1 RNA ligase (RNA editing core complex, RECC) (enzyme, UniProt P86927 45-469) YMPLPNDQSDFSPYIEIDLPSESRIQSLHKSGLAAQEWVACEKVHGTNFGIYLINQGDHEVVRFAKRSGIMDPNENFFGYHILIDEFTAQIRILNDLLKQKYGLSRVGRLVLNGELFGAKYKHPLVPKSEKWCTLPNGKKFPIAGVQIQREPFPQYSPELHFFAFDIKYSVSGAEEDFVLLGYDEFVEFSSKVPNLLYARALVRGTLDECLAFDVENFMTPLPALLGLGNYPLEGNLAEGVVIRHVRRGDPAVEKHNVSTIIKLRCSSFMELKHPGKQKELKETFIDTVRSGALRRVRGNVTVISDSMLPQVEAAANDLLLNNVSDGRLSNVLSKIGREPLLSGEVSQVDVALMLAKDALKDFLKEVDSLVLNTTLAFRKLLITNVYFESKRLVEQKWKELMQEEAAAQSEAIPPLSPAAPTKGE", "values": [
      {"measurement": "binding", "result": "binds"}
    ]}
  ]
}
